Data published in paper PMC10206301.

Amino acid sequences for entries named in this document (tags omitted). A change or cut given only in a name is not applied to a line headed by its entry. Residues count along the entry.
UniProt Q9Z1R2: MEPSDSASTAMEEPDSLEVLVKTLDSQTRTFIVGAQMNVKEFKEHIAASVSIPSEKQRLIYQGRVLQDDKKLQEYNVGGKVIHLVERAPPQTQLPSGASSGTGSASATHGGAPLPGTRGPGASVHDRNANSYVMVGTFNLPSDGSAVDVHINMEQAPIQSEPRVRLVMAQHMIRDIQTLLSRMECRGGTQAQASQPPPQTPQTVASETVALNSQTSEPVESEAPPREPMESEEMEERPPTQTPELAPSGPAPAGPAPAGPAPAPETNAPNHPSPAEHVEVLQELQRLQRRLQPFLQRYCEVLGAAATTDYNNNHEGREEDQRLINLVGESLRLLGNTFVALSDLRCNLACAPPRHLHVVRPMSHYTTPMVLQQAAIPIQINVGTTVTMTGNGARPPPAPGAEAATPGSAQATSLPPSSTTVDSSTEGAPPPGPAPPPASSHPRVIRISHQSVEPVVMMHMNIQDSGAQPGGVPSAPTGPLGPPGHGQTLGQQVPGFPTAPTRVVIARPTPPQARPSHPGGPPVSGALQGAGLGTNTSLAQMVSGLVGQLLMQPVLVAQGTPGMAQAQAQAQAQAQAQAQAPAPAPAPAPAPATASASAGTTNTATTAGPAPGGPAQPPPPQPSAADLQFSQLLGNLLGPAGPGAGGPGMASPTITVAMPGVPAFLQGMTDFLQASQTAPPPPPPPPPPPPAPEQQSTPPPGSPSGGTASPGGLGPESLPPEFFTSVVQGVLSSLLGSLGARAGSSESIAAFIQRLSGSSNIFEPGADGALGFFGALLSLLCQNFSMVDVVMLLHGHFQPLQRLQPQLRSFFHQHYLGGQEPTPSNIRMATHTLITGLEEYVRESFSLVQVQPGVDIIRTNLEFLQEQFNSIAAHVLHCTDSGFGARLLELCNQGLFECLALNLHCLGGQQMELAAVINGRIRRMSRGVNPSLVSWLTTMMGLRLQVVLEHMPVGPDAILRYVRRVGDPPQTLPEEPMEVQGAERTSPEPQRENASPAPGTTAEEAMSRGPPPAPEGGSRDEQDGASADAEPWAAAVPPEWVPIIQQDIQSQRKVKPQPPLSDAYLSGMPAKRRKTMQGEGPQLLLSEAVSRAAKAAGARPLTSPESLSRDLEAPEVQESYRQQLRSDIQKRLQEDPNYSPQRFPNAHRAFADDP
UniProt O54965, residues 35-381: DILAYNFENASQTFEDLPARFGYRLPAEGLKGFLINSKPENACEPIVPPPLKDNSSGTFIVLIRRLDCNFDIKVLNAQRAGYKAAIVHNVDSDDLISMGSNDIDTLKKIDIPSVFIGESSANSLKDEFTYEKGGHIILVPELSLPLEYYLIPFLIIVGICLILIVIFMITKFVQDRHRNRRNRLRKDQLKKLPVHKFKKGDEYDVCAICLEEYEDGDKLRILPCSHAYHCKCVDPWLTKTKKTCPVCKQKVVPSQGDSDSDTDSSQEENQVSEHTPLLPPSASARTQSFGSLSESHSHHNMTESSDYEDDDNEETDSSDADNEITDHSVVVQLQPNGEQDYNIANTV
UniProt P43404: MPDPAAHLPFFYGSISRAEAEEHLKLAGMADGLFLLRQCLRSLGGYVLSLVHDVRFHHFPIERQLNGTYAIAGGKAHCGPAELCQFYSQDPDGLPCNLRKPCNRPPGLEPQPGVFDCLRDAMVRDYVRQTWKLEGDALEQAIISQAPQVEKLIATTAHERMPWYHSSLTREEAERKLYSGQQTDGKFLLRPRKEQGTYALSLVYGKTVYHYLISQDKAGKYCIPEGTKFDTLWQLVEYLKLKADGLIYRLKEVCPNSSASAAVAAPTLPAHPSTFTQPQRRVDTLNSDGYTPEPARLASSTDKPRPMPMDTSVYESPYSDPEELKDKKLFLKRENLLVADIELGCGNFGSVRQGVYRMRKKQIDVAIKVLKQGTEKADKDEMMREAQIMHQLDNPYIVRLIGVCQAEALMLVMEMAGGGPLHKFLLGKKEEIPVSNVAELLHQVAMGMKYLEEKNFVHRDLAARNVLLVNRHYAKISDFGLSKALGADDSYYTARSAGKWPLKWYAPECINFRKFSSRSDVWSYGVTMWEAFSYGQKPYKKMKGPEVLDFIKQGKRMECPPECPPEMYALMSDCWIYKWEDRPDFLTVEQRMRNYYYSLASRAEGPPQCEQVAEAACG
UniProt P99026: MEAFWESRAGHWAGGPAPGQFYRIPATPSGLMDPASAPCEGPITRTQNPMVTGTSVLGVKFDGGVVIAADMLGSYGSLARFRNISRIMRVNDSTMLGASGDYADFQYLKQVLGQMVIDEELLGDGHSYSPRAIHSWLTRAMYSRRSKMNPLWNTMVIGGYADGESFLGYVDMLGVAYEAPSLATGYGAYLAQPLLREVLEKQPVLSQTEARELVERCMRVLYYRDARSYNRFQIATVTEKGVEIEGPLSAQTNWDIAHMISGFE

Legend:
[1] = target: T1, His-tagged hCCDC134 (recombinant eukaryotic human coiled-coil domain containing 134) (human) (UniProt Q9H6E4); assay: affinity purification with mass spectrometry; 5 mg precleared lysate of mouse splenic cells (stimulated with anti-CD3 and anti-CD28 for 24 h) incubated with purified His-tagged mCCDC134, hCCDC134 or control protein (His-tagged human Igκ) at 4°C for 2 h, captured on anti-His magnetic beads; washed six times in 50 mM Tris-HCl pH 7.5, 150 mM NaCl, 0.5% NP-40, 1 mM EDTA; gel regions analysed by LC-MS/MS; proteins also found in the control regarded as nonspecific; only the target purified
T1 sequence: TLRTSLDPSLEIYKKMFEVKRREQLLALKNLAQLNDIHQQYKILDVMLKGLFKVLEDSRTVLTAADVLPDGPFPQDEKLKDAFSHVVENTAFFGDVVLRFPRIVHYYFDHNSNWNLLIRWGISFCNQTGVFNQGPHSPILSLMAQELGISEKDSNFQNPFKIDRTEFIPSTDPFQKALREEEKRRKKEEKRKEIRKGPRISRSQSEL

[2] = target: T2, His-tagged mCCDC134 (recombinant eukaryotic mouse coiled-coil domain containing 134) (mouse) (UniProt Q8C7V8); assay: as above
T2 sequence: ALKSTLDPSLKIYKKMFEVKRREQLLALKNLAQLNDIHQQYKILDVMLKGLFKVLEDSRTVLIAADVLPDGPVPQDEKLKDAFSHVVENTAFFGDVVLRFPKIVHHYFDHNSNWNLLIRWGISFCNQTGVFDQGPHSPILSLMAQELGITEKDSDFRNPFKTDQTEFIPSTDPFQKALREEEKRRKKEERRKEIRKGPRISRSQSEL

Molecule	binding [1]	binding [2]
60S ribosomal protein L14 (from UniProt Q9CR57 1-217)	binds	binds
BCL2-associated athanogene 6 (Bag6) (from UniProt Q9Z1R2 1-1154)	binds	binds
E3 ubiquitin-protein ligase (RNF13) (from UniProt O54965 35-381)	binds	binds
Zap70 (endogenous, mouse splenic cell lysate) (from UniProt P43404 1-618)	binds	binds
proteasome subunit beta type-4 (Psmb4) (from UniProt P99026)	binds	binds
Perforin-1 (Prf1) (protein, UniProt P10820 21-554) PCYTATRSECKQKHKFVPGVWMAGEGMDVTTLRRSGSFPVNTQRFLRPDRTCTLCKNSLMRDATQRLPVAITHWRPHSSHCQRNVAAAKVHSTEGVAREAAANINNDWRVGLDVNPRPEANMRASVAGSHSKVANFAAEKTYQDQYNFNSDTVECRMYSFRLVQKPPLHLDFKKALRALPRNFNSSTEHAYHRLISSYGTHFITAVDLGGRISVLTALRTCQLTLNGLTADEVGDCLNVEAQVSIGAQASVSSEYKACEEKKKQHKMATSFHQTYRERHVEVLGGPLDSTHDLLFGNQATPEQFSTWTASLPSNPGLVDYSLEPLHTLLEEQNPKREALRQAISHYIMSRARWQNCSRPCRSGQHKSSHDSCQCECQDSKVTNQDCCPRQRGLAHLVVSNFRAEHLWGDYTTATDAYLKVFFGGQEFRTGVVWNNNNPRWTDKMDFENVLLSTGGPLRVQVWDADYGWDDDLLGSCDRSPHSGFHEVTCELNHGRVKFSYHAKCLPHLTGGTCLEYAPQGLLGDPPGNRSGAVW	binds	binds

These are yes or no findings as the source states them, for the method shown. In cells and extracts the contact can be indirect. A yes stands for co-enrichment or nearness to the bait. Other partners may have been found. Sequences can lack the tags named with a protein.
